From publication PMC10235067, “Increased renal elimination of endogenous and synthetic pyrimidine nucleosides in concentrative nucleoside transporter 1 deficient mice” (Nature Communications, 2023) come the findings set out here.

Data set [1] deals with CNT1. The data set can be described thus: Untargeted metabolomics of Slc28a1-/- vs Slc28a1+/+ mouse plasma (ad libitum). It is filed as in vivo.
For data set [2], the system named is CNT1. Put plainly: Untargeted metabolomics of Slc28a1-/- vs Slc28a1+/+ mouse urine (24 h, ad libitum). The conditions noted are these: for Fold Change / log2(FC): Slc28a1-/- / Slc28a1+/+; for change of level in Slc28a1-/- mouse urine (untargeted metabolomics): Slc28a1-/- vs Slc28a1+/+.
For data set [3], the system named is CNT1. The conditions noted are these: Slc28a1-/- (CNT1 KO) mice, one value per animal, Figure 2D-F source data.

Where “and” joins values, the source holds several entries; their conditions need not be identical. Identical values can stand only once.

In the case of `O=C(O)CCC1CCCC1` [3-Cyclopentylpropionic acid], the “Fold Change” value with CNT1 [1] was 3.2 and 3.1561; in the data set with CNT1 [2] it was 0.08576. For the same molecule, the “log2(FC)” value with CNT1 [1] was 1.7 and 1.6581; in the data set on CNT1 [2] it was -3.5436.
In the case of `Oc1ccnc2ccccc12` [4-Hydroxyquinoline], in the data set with CNT1 [1], the “Fold Change” value is 1.2 and 1.2087; the “log2(FC)” value was 0.3 and 0.2735. Moreover, in the data set on CNT1 [2], the “Fold Change” value is 27.672 and the “log2(FC)” value was found to be 4.7904.
`NNc1ccc(C(=O)O)cn1` [6-Hydrazinonicotinic acid]: in the data set on CNT1 [1], the “Fold Change” value was 0.6 and 0.5873; the “log2(FC)” value was -0.8 and -0.7679. Also, in the data set on CNT1 [2], the “Fold Change” value turned out to be 1.3224 and the “log2(FC)” value is 0.4032.
For `O=C(O)CCC[C@H](O)\C=C/C=C/C=C/[C@H](O)C/C=C\CCCCCO` [20-Trihydroxy-leukotriene-B4], the “Fold Change” value is 1.6 and 1.6338 in the data set on CNT1 [1]; 0.6041 with CNT1 [2]. The “log2(FC)” value in the data set with CNT1 [1] is 0.7 and 0.7082; with CNT1 [2] it was -0.727.
For the molecule `Nc1ncnc2c1ncn2[C@@H]1O[C@H](CO)[C@@H](O)[C@H]1O` [Adenosine], the “Fold Change” value with CNT1 [1] was 0.9 and 0.8524; with CNT1 [2], 2E+00 and 2.0454. Also, the “log2(FC)” value was -0.2 and -0.2304 with CNT1 [1]; 1.0 and 1.0324 with CNT1 [2].
As for `O=c1[nH]cnc2c1ncn2[C@@H]1O[C@H](CO)[C@@H](O)[C@@H]1O` [Arabinosylhypoxanthine], the “Fold Change” value was 0.8 and 0.7549 with CNT1 [1]; 2.4238 with CNT1 [2]. For the same molecule, the “log2(FC)” value was -0.4 and -0.4056 with CNT1 [1]; 1.2773 with CNT1 [2].
Turning to `CN(CC(=O)O)C(=N)N` [Creatine], in the data set with CNT1 [1], the “log2(FC)” value was -0.5 and -0.548. In the data set with CNT1 [2], the “change of level in Slc28a1-/- mouse urine (untargeted metabolomics)” value was “unaltered”.
With `CN1CC(=O)NC1=N` [Creatinine], in the data set on CNT1 [1], the “Fold Change” value was 0.6 and 0.6078; the “log2(FC)” value was -0.7 and -0.7183. Moreover, the “change of level in Slc28a1-/- mouse urine (untargeted metabolomics)” value in the data set with CNT1 [2] is reported as “unaltered”.
With `O=c1[nH]cnc2nc[nH]c12` [Hypoxanthine], in the data set with CNT1 [1], the “Fold Change” value was 0.8 and 0.7546; the “log2(FC)” value was -0.4 and -0.4062. Moreover, in the data set on CNT1 [2], the “Fold Change” value came to 1.4699 and the “log2(FC)” value is on record as 0.5557.
In the case of `N[C@@H](Cc1c[nH]c2ccccc12)C(=O)O` [L-Tryptophan], the “Fold Change” value is 1.2 and 1.2301 in the data set on CNT1 [1]; 1.2938 with CNT1 [2]. Also, the “log2(FC)” value was 0.3 and 0.2988 in the data set with CNT1 [1]; 0.3716 in the data set on CNT1 [2].
As to `C=C1CCCCC1` [Methylenecyclohexane], the “Fold Change” value with CNT1 [1] was 4.3 and 4.303; in the data set with CNT1 [2] it was 1.3027. Further, the “log2(FC)” value with CNT1 [1] is 2.1 and 2.1053; in the data set with CNT1 [2], 0.3815.
With `CCC=CCC=CCC=CCC=CCC=CCCCC(=O)N[C@@H](CCSC)C(=O)O` [N-Eicosapentaenoyl Methionine], in the data set on CNT1 [1], the “Fold Change” value was 1.9 and 1.9179; the “log2(FC)” value was 0.9 and 0.9395. Besides, in the data set with CNT1 [2], the “Fold Change” value came to 0.02285 and the “log2(FC)” value is recorded as -5.4516.
As to `CCC(=O)OC(CC(=O)[O-])C[N+](C)(C)C` (centres unmarked) [Propionylcarnitine], the “Fold Change” value with CNT1 [1] was 0.8 and 0.7728; in the data set with CNT1 [2], 0.3206. Further, the “log2(FC)” value is -0.4 and -0.3718 in the data set with CNT1 [1]; -1.6411 in the data set on CNT1 [2].
`Nc1ncnc2c1ncn2[C@H]1C[C@H](O)[C@@H](CO)O1` [deoxyadenosine]: in the data set on CNT1 [3], the “Urine level of nucleoside / deoxynucleoside / nucleobase, CNT1 KO Urine (individual mice)” value was determined as 0.
